# Test results from the supplement of paper PMC8728848.
# Some of the results follow.
# B1: Awp1 (Candida glabrata) (protein)
# chain: MSLITIFAFLIKATLVLSLDILTPTTLTGDQTFNEDVSVVSSLTLNDGSQYLFNNLLQIAPSSASVTANALAAVSVFTFSLPPSSSLSNSGTLIISNSNTGPSTEQHIVITPNVMANTGTITLSLAHTNTDSSSTLIIDPVTFYNTGTINYESIGSETNDPSLTGNILSIGSSGRTLQNLGTINLNAANSYYLLGTITENSGSINVQKGFLYVNALDFIGNTINLSTTTALAFISPVSQVVRVRGVFFGNIIASVGSSGTFSYNTQTGILTVTTNGVYSYDIGCGYNPALMSGQQETLSFQGNPYDTFLVLVNQPIPSDLTCAAVSSSITPSSSVEPSSSVVPSSSVEPSSSVEPSSSVEPSSSVEPSSSVEPSSSVEPSSSVEPSSSVEPSSSVEPSSSVEPSSSVEPSSSVEPSSSVEPSSSVEPSSSVEPSSSVEPSSSVEPSSSVEPSSSVEPSSLIVPSSSVEPSSSVLPSSSVVPSSSVEPSTPPIPSSSVEPSSSVVPSSPAVPSSSVEPSTPPIPSSSVVSASVFDTSSTLPSSPSVPPSSVSPSTISTPSSSAAPSSFCPTCVSSGTPPAPSSSAIVPTSSAGGGNGGDNREPGAAGQPGAAGQPGAAGQPGAAGQPGAAGQPGAAGQPGAAGQPGAAGQPGAAGQPGAAGQPGAGFGVGSEQPTPGAGAGSGSADGNQSGTGSGTGNGQQGSGQAGSGQAGSGQEGSGQAGSGQAGSGQAGSGQAGSGQAGLDNTASGQSEGGQASAMDGDQSGRDGQSNSGSLLQPNAQQGTGSGTGSDIGADQASGESPGQIGDAQPGSGTDQSSGRHSLAAEARTSQSHSLAADARTRSTTRQTSVIAPDTAPGTASGTAPGTAPGTAVVTTFHGCGTVNHKGMINILLALALLVLL
# Experiments:
# Test in all cases: glycan array binding signal (z-score within array); higher = stronger binding
# Conditions in all cases: glycan notation: IUPAC condensed, linker removed
# [1] = target: Fuc(a1-2)[Gal(a1-3)]Gal(b1-4)GlcNAc(b1-2)Man(a1-3)[Fuc(a1-2)[Gal(a1-3)]Gal(b1-4)GlcNAc(b1-2)Man(a1-6)]Man(b1-4)GlcNAc(b1-4)[Fuc(a1-6)]GlcNAc
# Summary of the method: (§1)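 Glycan array binding is given as a within-array Z-score, which can be read as non-binding when negative. The arrays, 3228 of them, came from the Consortium for Functional Glycomics database and were retained only where the protein sequence was available. Z-scores were averaged across arrays of the same protein sequence at different concentrations or buffers and across linkers.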
# [2] = target: Fuc(a1-2)[Gal(a1-3)]Gal(b1-4)GlcNAc(b1-3)GalNAc
# Summary of the method: as §1
# [3] = target: Fuc(a1-2)[Gal(a1-3)]Gal(b1-4)GlcNAc(b1-3)[Fuc(a1-2)[Gal(a1-3)]Gal(b1-4)GlcNAc(b1-6)]GalNAc
# Summary of the method: as §1
# [4] = target: Fuc(a1-2)[Gal(a1-3)]Gal(b1-4)GlcNAc(b1-6)GalNAc
# Summary of the method: as §1
# [5] = target: Fuc(a1-2)[Gal(a1-3)]Gal(b1-4)[Fuc(a1-3)]Glc
# Summary of the method: as §1
# [6] = target: Fuc(a1-2)[Gal(a1-3)]Gal(b1-4)[Fuc(a1-3)]GlcNAc
# Summary of the method: as §1
# [7] = target: Fuc(a1-2)[Gal(a1-3)]Gal(b1-4)[Fuc(a1-3)]GlcNAc(b1-3)GalNAc
# Summary of the method: as §1
# [8] = target: Fuc(a1-2)[Gal(a1-4)]Gal(b1-4)GlcNAc
# Summary of the method: as §1
# [9] = target: Fuc(a1-2)[GalNAc(a1-3)]Gal
# Summary of the method: as §1
# [10] = target: Fuc(a1-2)[GalNAc(a1-3)]Gal(b1-3)GalNAc(a1-3)[Fuc(a1-2)]Gal(b1-4)GlcNAc
# Summary of the method: as §1
# [11] = target: Fuc(a1-2)[GalNAc(a1-3)]Gal(b1-3)GalNAc(b1-3)Gal(a1-4)Gal(b1-4)Glc
# Summary of the method: as §1
# [12] = target: Fuc(a1-2)[GalNAc(a1-3)]Gal(b1-3)GlcNAc
# Summary of the method: as §1
# [13] = target: Fuc(a1-2)[GalNAc(a1-3)]Gal(b1-3)GlcNAc(b1-2)Man(a1-3)[Fuc(a1-2)[GalNAc(a1-3)]Gal(b1-3)GlcNAc(b1-2)Man(a1-6)]Man(b1-4)GlcNAc(b1-4)GlcNAc
# Summary of the method: as §1
# [14] = target: Fuc(a1-2)[GalNAc(a1-3)]Gal(b1-3)GlcNAc(b1-2)Man(a1-3)[Fuc(a1-2)[GalNAc(a1-3)]Gal(b1-3)GlcNAc(b1-2)Man(a1-6)]Man(b1-4)GlcNAc(b1-4)[Fuc(a1-6)]GlcNAc
# Summary of the method: as §1
# [15] = target: Fuc(a1-2)[GalNAc(a1-3)]Gal(b1-3)GlcNAc(b1-3)GalNAc
# Summary of the method: as §1
# [16] = target: Fuc(a1-2)[GalNAc(a1-3)]Gal(b1-3)GlcNAc(b1-6)GalNAc
# Summary of the method: as §1
# [17] = target: Fuc(a1-2)[GalNAc(a1-3)]Gal(b1-4)Glc
# Summary of the method: as §1
# [18] = target: Fuc(a1-2)[GalNAc(a1-3)]Gal(b1-4)GlcNAc
# Summary of the method: as §1
# [19] = target: Fuc(a1-2)[GalNAc(a1-3)]Gal(b1-4)GlcNAc(b1-2)Man
# Summary of the method: as §1
# [20] = target: Fuc(a1-2)[GalNAc(a1-3)]Gal(b1-4)GlcNAc(b1-2)Man(a1-3)[Fuc(a1-2)[GalNAc(a1-3)]Gal(b1-4)GlcNAc(b1-2)Man(a1-6)]Man(b1-4)GlcNAc(b1-4)GlcNAc
# Summary of the method: as §1
# [21] = target: Fuc(a1-2)[GalNAc(a1-3)]Gal(b1-4)GlcNAc(b1-2)Man(a1-3)[Fuc(a1-2)[GalNAc(a1-3)]Gal(b1-4)GlcNAc(b1-2)Man(a1-6)]Man(b1-4)GlcNAc(b1-4)[Fuc(a1-6)]GlcNAc
# Summary of the method: as §1
# [22] = target: Fuc(a1-2)[GalNAc(a1-3)]Gal(b1-4)GlcNAc(b1-3)Gal(b1-4)GlcNAc
# Summary of the method: as §1
# [23] = target: Fuc(a1-2)[GalNAc(a1-3)]Gal(b1-4)GlcNAc(b1-3)Gal(b1-4)GlcNAc(b1-3)Gal(b1-4)GlcNAc
# Summary of the method: as §1
# [24] = target: Fuc(a1-2)[GalNAc(a1-3)]Gal(b1-4)GlcNAc(b1-3)GalNAc
# Summary of the method: as §1
# [25] = target: Fuc(a1-2)[GalNAc(a1-3)]Gal(b1-4)GlcNAc(b1-3)[Fuc(a1-2)[GalNAc(a1-3)]Gal(b1-4)GlcNAc(b1-6)]GalNAc
# Summary of the method: as §1
# [26] = target: Fuc(a1-2)[GalNAc(a1-3)]Gal(b1-4)GlcNAc(b1-6)GalNAc
# Summary of the method: as §1
# [27] = target: Fuc(a1-2)[GalNAc(a1-3)]Gal(b1-4)[Fuc(a1-3)]GlcNAc
# Summary of the method: as §1
# [28] = target: Fuc(a1-2)[GalNAc(a1-3)]Gal(b1-4)[Fuc(a1-3)]GlcNAc(b1-3)GalNAc
# Summary of the method: as §1
# [29] = target: Fuc(a1-2)[GalNAc(a1-4)]Gal(b1-4)GlcNAc
# Summary of the method: as §1
# [30] = target: Fuc(a1-2)[GalNAc(b1-3)]Gal
# Summary of the method: as §1
binder,measurement,setting,value
B1,glycan array binding signal (z-score),[1],-0.003
same,glycan array binding signal (z-score),[2],-1.3
same,glycan array binding signal (z-score),[3],0.108
same,glycan array binding signal (z-score),[4],-1.41
same,glycan array binding signal (z-score),[5],-0.915
same,glycan array binding signal (z-score),[6],1.42
same,glycan array binding signal (z-score),[7],0.158
same,glycan array binding signal (z-score),[8],-0.177
same,glycan array binding signal (z-score),[9],-0.243
same,glycan array binding signal (z-score),[10],-0.976
same,glycan array binding signal (z-score),[11],0.017
same,glycan array binding signal (z-score),[12],-0.908
same,glycan array binding signal (z-score),[13],0.268
same,glycan array binding signal (z-score),[14],0.472
same,glycan array binding signal (z-score),[15],1.47
same,glycan array binding signal (z-score),[16],1.04
same,glycan array binding signal (z-score),[17],-0.359
same,glycan array binding signal (z-score),[18],0.044
same,glycan array binding signal (z-score),[19],-0.359
same,glycan array binding signal (z-score),[20],-1.25
same,glycan array binding signal (z-score),[21],-0.09
same,glycan array binding signal (z-score),[22],-1.35
same,glycan array binding signal (z-score),[23],0.691
same,glycan array binding signal (z-score),[24],-0.601
same,glycan array binding signal (z-score),[25],-1.25
same,glycan array binding signal (z-score),[26],-0.35
same,glycan array binding signal (z-score),[27],-1.15
same,glycan array binding signal (z-score),[28],-0.176
same,glycan array binding signal (z-score),[29],-0.738
same,glycan array binding signal (z-score),[30],0.041

# In another format: results already given.
binder	measurement	setting	value
B1	glycan array binding signal (z-score)	[10]	-0.976
same	glycan array binding signal (z-score)	[11]	0.017
